# This continues a long series; more values of the same kind are listed elsewhere.
# Assay: Phase solubility of M4N in HP-β-CD (Higuchi and Connors), RP-HPLC
# Type: physicochemical
# Settings: HP-β-CD 0-350 mmol/L, 48 hours, room temperature
# Experimental: The aqueous solubility of M4N at various concentrations of HP-β-CD was evaluated by the method reported by Higuchi and Connors (1965). […] The M4N/HP-β-CD solutions were then filtered through a 0.45 μm SFCA filter and analyzed via RP-HPLC.
smiles,measurement,value
"COc1ccc(C[C@@H](C)[C@@H](C)Cc2ccc(OC)c(OC)c2)cc1OC [Formulation M4N, meso-1,4-bis(3,4-dimethoxyphenyl)-2,3-dimethylbutane]","phase-solubility profile, formation of the M4N/HP-β-CD complex",non-linear

# From patent US20090022803A1, “Oral Formulations For Delivery of Catecholic Butanes Including Ndga Compounds” (priority 2005, published 2009)
